Experimental data reported in publication PMC12935370.
No constants are given. Whether binding was seen depends on the method and setting. Binding seen in cells or lysates may run through a third protein. A result given as binding can be weak or reduced; the word gives no strength.

Target: GST-tagged MAGI-2
Assay: pull-down; GST-tagged MAGI-2 with glomerular lysates from mouse kidneys; only the target purified

- binding: binds
B1: Synpo (synaptopodin), endogenous in mouse glomeruli (protein, UniProt Q8CC35 1-929)
chain: MLGAHFPPPPLGASEGRAAPCTFQIPDGSYRCLALEAEESSSEDGLQGEVRLVDLEEEGTSQSRANHGTPPLSRAPAIIQPSSCHREARGGFQRSDRPSHDWDVVQARKVMTASGSSSPVPRVAQKPALGRSTSFTENDLKEAKARSQQIAAQLTTPPSSNSRGVQLFNRRRQRVNEFTLESRGQRSPKLNQEALQTGRPLSPIGHAPGPSVKPTSPSKPGSPKHPSPQSPSRGVAGHIMEGYSEEASLLRHLEKVASEEEEVPLVVYLKENAALLTANGLHLSQSRETQQSSPNPPDTEVPSPAADINQNPSSPNATLTTLASSSHHSQPTADINQNPPAAITPVPQNSSQAQCSPNGTLDSKPGTLCADDGQSPVPAEEVRSSILLIDKVSAPPSAASTFSREATPLSSSGPPAADLMSSSLLIDMQPSTLVAPAEQEVPGHVAVTTPTKVYSEVHLTLAKPASVVNRTARPFGIQSPGTSQIEQSPMMGRRQFGEKAWAPPASSMADRSPQPQRHIMSRSPMVERRLLGQRSPVLERRPLGNFTPPPTYAETLSTAPVASRVRSPPSYSTLYPSSDPKPSHLKGQVAPANKTGILEESMARRGSRKSMFTFVEKPKVTPNPDLLDLVQTADEKRRQRDHGEVGMEEEPFALGAEASNFQQEPIARDRASPAAAEEAVPEWASCLKSPRIQAKPKPKPNQNLSEASGKGAELYARRQSRMEKYVIESSGHAELARCPSPTMSLPSSWKYTTNAPGGFRVASLSPARTPPASLYHGYLPENGVLRPEPTKQQPYQMRPSLYALSPVKEPAKASSRATSSRTPSRTVSPRAASPAKPSSLDLVPNLPRAGLPPSPALPRPSRSSPGLYTAPVQDSLQPTAVSPTYSSDISPVSPSRAWSPRAKQAPRPSFSTRNAGIEAQVWKPSFCFK
